# Measured values taken from the supplement of paper PMC10849652.
# Protein sequences, listed by entry. Tags and fused reporters are not part of them. Lines headed by an entry give the natural chain unless they say otherwise; changes in a name come on top.
# UniProt Q14118: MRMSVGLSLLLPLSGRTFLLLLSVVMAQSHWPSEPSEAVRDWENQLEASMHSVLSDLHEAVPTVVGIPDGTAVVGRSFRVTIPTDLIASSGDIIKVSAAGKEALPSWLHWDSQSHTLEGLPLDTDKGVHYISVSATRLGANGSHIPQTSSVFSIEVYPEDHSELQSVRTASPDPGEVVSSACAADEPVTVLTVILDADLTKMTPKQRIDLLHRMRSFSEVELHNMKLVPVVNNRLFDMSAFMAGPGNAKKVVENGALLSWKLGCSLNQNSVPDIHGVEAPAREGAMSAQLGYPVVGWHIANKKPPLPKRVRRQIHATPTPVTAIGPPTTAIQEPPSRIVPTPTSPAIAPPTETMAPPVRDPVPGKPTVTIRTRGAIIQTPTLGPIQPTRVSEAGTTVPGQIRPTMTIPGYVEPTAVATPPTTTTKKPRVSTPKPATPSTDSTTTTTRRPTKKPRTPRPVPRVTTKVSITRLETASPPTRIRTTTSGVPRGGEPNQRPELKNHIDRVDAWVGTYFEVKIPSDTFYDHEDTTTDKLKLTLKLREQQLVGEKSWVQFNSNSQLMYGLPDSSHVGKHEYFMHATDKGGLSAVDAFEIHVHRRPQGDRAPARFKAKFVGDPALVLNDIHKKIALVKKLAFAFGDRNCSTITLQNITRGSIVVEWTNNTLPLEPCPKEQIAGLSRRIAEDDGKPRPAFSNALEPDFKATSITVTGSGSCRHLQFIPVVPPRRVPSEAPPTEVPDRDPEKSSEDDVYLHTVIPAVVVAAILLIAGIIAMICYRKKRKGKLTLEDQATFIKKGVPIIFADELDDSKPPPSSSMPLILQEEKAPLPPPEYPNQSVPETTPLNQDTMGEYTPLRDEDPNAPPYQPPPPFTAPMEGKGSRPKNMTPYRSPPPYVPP
# UniProt Q9NXF7, whole entry, looked up: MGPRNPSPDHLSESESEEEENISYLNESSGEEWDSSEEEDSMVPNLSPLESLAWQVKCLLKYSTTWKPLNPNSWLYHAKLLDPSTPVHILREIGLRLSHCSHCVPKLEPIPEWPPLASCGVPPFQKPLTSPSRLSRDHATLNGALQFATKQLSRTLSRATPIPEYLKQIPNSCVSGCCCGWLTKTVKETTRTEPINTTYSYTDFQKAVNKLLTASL
# UniProt Q9H773: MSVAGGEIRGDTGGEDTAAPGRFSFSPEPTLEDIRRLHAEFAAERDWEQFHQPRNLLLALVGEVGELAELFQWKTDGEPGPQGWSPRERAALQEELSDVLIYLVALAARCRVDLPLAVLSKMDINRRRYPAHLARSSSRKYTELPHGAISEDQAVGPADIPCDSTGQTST
# UniProt Q6ZWL3: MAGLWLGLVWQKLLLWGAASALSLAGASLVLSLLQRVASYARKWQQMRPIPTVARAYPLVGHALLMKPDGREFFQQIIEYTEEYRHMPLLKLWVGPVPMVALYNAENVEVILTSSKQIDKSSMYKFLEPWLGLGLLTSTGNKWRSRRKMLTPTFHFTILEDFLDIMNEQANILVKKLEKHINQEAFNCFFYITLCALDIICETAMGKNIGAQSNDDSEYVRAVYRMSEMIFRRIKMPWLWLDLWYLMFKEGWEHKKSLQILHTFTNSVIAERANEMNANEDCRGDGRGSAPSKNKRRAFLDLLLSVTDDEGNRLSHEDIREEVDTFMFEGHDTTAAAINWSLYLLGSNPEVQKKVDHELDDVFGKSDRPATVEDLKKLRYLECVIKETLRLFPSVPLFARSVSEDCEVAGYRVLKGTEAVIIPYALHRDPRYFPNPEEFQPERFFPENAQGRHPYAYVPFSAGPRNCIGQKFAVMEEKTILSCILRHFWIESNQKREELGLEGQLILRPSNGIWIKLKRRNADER
# UniProt Q8WUE5: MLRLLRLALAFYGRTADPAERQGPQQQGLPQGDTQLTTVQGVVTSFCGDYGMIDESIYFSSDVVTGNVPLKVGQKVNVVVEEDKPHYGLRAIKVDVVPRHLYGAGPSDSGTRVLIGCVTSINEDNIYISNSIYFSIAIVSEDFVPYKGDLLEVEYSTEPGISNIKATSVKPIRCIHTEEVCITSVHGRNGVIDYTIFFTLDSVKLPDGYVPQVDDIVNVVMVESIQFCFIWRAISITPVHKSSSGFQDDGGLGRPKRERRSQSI
# UniProt Q9UER7, whole entry, looked up: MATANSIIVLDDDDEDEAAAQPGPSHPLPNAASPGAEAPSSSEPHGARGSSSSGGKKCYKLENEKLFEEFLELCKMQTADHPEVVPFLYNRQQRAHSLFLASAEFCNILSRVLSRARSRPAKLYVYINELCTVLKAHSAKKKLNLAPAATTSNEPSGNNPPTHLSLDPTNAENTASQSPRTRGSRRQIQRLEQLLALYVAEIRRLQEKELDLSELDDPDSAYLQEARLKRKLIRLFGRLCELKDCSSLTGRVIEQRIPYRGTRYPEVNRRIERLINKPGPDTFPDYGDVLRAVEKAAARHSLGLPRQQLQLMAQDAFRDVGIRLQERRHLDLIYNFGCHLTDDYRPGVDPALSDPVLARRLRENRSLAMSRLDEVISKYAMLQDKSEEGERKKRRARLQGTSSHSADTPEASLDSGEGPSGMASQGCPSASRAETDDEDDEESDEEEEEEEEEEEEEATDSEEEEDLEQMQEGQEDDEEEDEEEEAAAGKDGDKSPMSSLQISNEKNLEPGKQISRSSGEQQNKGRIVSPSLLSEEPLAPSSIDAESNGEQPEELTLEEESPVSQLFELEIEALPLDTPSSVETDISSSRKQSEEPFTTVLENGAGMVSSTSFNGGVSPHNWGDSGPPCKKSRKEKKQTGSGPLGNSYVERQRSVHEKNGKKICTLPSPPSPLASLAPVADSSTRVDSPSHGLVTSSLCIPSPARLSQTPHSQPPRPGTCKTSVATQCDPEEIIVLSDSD
# UniProt Q07973: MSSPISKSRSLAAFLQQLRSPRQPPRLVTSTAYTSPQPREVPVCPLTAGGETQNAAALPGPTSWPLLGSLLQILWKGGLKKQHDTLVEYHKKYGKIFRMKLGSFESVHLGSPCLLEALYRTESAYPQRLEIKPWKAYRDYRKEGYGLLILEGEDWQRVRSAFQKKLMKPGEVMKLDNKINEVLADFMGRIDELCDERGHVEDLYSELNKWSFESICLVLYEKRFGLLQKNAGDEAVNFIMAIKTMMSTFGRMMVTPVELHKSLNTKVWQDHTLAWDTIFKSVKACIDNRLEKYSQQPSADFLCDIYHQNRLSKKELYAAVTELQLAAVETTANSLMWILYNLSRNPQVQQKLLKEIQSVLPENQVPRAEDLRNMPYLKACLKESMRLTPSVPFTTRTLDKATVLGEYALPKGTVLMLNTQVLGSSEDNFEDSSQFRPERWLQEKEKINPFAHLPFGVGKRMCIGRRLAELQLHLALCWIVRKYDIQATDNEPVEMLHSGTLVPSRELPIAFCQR
# UniProt Q8NBI2: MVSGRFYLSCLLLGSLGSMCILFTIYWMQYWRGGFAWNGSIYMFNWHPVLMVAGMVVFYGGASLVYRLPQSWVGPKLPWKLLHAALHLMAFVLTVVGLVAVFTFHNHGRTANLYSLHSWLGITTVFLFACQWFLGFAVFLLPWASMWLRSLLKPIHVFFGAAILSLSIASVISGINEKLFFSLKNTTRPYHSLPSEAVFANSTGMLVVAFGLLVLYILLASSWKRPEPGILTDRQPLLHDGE
# UniProt P35222, whole entry, looked up: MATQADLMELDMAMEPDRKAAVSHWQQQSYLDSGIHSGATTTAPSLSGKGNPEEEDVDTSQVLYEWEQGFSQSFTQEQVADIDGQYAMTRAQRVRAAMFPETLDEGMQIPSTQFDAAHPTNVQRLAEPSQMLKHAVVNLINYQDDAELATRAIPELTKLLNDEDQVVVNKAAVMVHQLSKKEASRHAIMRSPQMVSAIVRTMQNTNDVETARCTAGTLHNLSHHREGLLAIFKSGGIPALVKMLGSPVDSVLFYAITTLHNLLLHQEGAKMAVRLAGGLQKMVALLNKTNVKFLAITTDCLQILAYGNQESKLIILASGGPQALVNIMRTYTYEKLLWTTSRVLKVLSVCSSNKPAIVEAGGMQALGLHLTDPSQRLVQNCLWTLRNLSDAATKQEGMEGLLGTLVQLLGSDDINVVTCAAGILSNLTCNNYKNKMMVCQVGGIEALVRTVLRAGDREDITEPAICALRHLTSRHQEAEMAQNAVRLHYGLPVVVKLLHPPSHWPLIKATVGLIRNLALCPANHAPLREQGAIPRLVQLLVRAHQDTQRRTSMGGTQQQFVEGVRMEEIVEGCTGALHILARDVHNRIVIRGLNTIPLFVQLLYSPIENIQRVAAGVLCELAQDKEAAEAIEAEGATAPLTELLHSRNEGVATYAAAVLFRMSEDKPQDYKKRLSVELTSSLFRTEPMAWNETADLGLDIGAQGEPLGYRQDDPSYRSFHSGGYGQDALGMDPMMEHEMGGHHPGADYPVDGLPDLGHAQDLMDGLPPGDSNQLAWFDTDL
# UniProt P01036: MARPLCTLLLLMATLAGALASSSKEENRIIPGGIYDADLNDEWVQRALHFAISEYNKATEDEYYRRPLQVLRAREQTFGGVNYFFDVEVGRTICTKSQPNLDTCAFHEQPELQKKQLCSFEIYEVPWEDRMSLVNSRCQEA
# UniProt Q5H9S7: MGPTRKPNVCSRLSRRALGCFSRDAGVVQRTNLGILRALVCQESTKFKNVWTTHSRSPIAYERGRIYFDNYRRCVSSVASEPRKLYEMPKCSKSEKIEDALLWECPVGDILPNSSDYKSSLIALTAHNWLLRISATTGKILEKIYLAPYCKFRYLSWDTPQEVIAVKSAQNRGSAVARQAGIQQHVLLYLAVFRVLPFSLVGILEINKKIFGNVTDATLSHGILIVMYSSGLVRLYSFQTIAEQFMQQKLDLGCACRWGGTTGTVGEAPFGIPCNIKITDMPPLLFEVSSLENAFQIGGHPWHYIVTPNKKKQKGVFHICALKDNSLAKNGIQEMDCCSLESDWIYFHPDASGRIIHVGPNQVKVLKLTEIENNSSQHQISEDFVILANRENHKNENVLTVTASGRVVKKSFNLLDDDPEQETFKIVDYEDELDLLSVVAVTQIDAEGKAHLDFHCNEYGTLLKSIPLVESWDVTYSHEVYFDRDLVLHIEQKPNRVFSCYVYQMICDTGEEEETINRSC
# UniProt Q15438: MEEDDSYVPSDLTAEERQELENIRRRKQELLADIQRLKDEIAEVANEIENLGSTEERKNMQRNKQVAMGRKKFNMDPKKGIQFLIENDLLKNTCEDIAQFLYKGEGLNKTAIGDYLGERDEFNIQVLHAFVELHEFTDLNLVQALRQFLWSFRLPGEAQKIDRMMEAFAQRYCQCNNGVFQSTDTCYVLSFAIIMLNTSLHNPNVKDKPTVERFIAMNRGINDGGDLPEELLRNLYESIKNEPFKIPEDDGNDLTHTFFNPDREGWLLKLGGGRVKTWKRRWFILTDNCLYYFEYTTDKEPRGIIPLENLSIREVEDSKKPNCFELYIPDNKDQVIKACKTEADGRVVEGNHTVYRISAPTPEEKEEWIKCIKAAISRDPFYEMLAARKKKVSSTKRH
# UniProt Q16527: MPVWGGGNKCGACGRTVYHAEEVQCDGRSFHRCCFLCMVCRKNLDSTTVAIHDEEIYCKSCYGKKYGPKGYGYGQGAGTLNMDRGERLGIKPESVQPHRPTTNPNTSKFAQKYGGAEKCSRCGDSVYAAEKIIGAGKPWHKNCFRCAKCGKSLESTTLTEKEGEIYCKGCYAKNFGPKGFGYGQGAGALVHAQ
# UniProt Q9UIK4: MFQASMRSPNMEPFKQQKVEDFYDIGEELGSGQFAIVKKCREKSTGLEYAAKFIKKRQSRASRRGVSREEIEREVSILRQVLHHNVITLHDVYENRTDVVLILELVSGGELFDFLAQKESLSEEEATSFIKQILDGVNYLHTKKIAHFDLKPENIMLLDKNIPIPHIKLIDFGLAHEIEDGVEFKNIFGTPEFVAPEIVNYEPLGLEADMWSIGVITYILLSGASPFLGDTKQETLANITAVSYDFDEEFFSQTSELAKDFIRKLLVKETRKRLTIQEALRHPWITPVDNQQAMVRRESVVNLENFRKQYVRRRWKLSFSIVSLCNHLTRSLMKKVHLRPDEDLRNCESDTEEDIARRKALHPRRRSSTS
# UniProt Q9UBX1: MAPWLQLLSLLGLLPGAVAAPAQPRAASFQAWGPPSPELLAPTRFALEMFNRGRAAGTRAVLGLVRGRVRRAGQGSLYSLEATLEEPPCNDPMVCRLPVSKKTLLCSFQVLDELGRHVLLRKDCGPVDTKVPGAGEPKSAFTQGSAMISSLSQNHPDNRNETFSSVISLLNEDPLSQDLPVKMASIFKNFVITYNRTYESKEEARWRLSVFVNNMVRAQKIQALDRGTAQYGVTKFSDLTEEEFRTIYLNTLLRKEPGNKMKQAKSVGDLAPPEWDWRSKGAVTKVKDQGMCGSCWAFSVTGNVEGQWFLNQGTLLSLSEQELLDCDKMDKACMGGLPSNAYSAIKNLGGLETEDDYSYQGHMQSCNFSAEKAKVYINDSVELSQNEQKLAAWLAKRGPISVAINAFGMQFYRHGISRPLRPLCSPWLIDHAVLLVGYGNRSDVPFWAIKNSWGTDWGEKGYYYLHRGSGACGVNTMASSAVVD
# The other results are listed elsewhere or left out. Residues, ends and D or L forms follow the SMILES beside them. *: point of attachment. Cbz = O=C(OCc1ccccc1)*
# Key:
# Test in all cases: log2 fold change, soluble protein after heating vs DMSO (PISA); higher = thermal stabilisation; K562 cells, 10 uM, 30 min; active = over 0.2 and 3.5 SD of the protein, either way, in both replicates (recomputed)
# erlotinib = compound: C#Cc1cccc(Nc2ncnc3cc(OCCOC)c(OCCOC)cc23)c1 [erlotinib]
# How it was run: (§1)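 K562 cells at 2×10^6 cells/mL were exposed to 10 μM compound for 30 min, then aliquots were heated for 3 min across 48°C-58°C, pooled, and extracted in PBS containing 0.5% NP-40 at 4°C. The supernatant after 21,000xg for 90 min was taken as soluble protein and measured by TMTpro 16plex LC-MS/MS with channel sums equalised. Thermal stability is reported relative to control samples, with values from duplicates. Fold changes are given on a log2 scale.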
# [1] = compound: C/C(=N\NC(=O)C1=CC(=CC=C1)S(=O)(=O)N2CCOCC2)/C3=C(C=CC(=C3)Cl)O
# How it was run: as §1
# [2] = compound: C1=CC(=C(C=C1Cl)C2=NC3=NC=CN=C3C(=N2)NC4=CC=NC=C4)F
# How it was run: as §1
# [3] = compound: C1=CC(=CC=C1C2=NC3=C(N2)C=C(C=C3)C(=O)N)OC4=CC=C(C=C4)Cl
# How it was run: as §1
# [4] = compound: C1=CC2=C(C=CC(=C2)/C=C\3/C(=O)NC(=NCC4=CC=CS4)S3)N=C1
# How it was run: as §1
# [5] = compound: C1=CC2=NC=CN=C2C=C1/C=C/3\C(=O)NC(=O)S3
# How it was run: as §1
# [6] = compound: C1=CC=C(C=C1)C2=NC(=C(N2)C3=CC=NC=C3)C4=CC(=C(C=C4)Cl)O
# How it was run: as §1
# [7] = compound: C1=CC=C2C(=C1)C3=NNC4=CC=CC(=C43)C2=O
# How it was run: as §1
# [8] = compound: C1CCN(C1)C(=O)NC2=CC=CC(=C2)NC3=NC=C(C(=N3)NCCC4=CN=CN4)Br
# How it was run: as §1
# [9] = compound: C1CN(CCC1(CC2=CC=C(C=C2)Cl)N)C3=NC=NC4=C3C=CN4
# How it was run: as §1
# IRAK-1-4 Inhibitor I = compound: C1COCCN1CCN2C3=CC=CC=C3N=C2NC(=O)C4=CC(=CC=C4)[N+](=O)[O-] [IRAK-1-4 Inhibitor I]
# How it was run: as §1
# ibrutinib = compound: C=CC(=O)N1CCC[C@@H](n2nc(-c3ccc(Oc4ccccc4)cc3)c3c(N)ncnc32)C1 [ibrutinib]
# How it was run: as §1
# [10] = compound: CC(=O)c1cnc2ccc(-c3cc(Cl)c(O)c(Cl)c3)nc2c1N[C@H]1CC[C@H](CN(C)C)CC1
# How it was run: as §1
# ralimetinib = compound: CC(C)(C)Cn1c(N)nc2ccc(-c3[nH]c(C(C)(C)C)nc3-c3ccc(F)cc3)nc21 [ralimetinib]
# How it was run: as §1
# [11] = compound: CC(C)(O)CC(=O)NCCn1ccc2ncnc(Nc3ccc(Oc4cccc(C(F)(F)F)c4)c(Cl)c3)c21
# How it was run: as §1
# [12] = compound: CC(C)C1=C2N=C(C=C(N2N=C1)NCC3=CC=CC=C3)NCCCCCCN
# How it was run: as §1
# [13] = compound: CC(C)C[C@@H](C=O)NC(=O)[C@H](CC(C)C)NC(=O)[C@H](CC(C)C)NC(=O)OCc1ccccc1
# How it was run: as §1
# pinometostat = compound: CC(C)N(C[C@H]1O[C@@H](n2cnc3c(N)ncnc32)[C@H](O)[C@@H]1O)[C@H]1C[C@@H](CCc2nc3cc(C(C)(C)C)ccc3[nH]2)C1 [pinometostat]
# How it was run: as §1
# [14] = compound: CC1=C(C2=C(C=C1)C(=O)C3=CC=CC=C3N2CCCN)C
# How it was run: as §1
# [15] = compound: CC1=C(C(CC(=O)N1)C2=CC=C(C=C2)C(F)(F)F)C(=O)NC3=C(C=C4C(=C3)C=NN4)F
# How it was run: as §1
Target,log2 fold change (erlotinib),log2 fold change [1],log2 fold change [2],log2 fold change [3],log2 fold change [4],log2 fold change [5],log2 fold change [6],log2 fold change [7],log2 fold change [8],log2 fold change [9],log2 fold change (IRAK-1-4 Inhibitor I),log2 fold change (ibrutinib),log2 fold change [10],log2 fold change (ralimetinib),log2 fold change [11],log2 fold change [12],log2 fold change [13],log2 fold change (pinometostat),log2 fold change [14],log2 fold change [15]
DAG1 (UniProt Q14118),inactive: 0.055,inactive: 0.067,inactive: -0.043,inactive: 0,inactive: -0.038,inactive: -0.037,inactive: -0.154,inactive: -0.06,inactive: -0.009,inactive: 0.035,inactive: -0.019,inactive: -0.024,inactive: -0.029,inactive: -0.076,inactive: 0.003,inactive: 0.169,inactive: 0.008,inactive: 0.04,inactive: 0.067,–
CTSB (UniProt P07858),inactive: 0.021,inactive: -0.037,inactive: 0.026,inactive: 0.003,inactive: 0.038,inactive: 0.016,inactive: 0.009,inactive: -0.017,inactive: 0.007,inactive: 0.04,inactive: -0.009,inactive: 0.032,inactive: 0.013,inactive: -0.044,inactive: 0.011,active: -0.426,inactive: 0.037,inactive: -0.031,inactive: -0.053,–
DCAF16 (UniProt Q9NXF7),inactive: 0.051,inactive: 0.042,inactive: 0.036,inactive: 0,inactive: -0.034,inactive: -0.002,inactive: -0.001,inactive: 0.048,inactive: 0.039,inactive: -0.127,inactive: -0.04,inactive: 0.017,inactive: 0.039,inactive: 0.034,inactive: -0.052,inactive: -0.027,inactive: 0.018,inactive: 0.055,inactive: -0.105,–
DCTPP1 (UniProt Q9H773),inactive: 0.01,inactive: -0.07,inactive: 0.14,inactive: -0.039,inactive: -0.073,inactive: 0.035,inactive: 0.194,inactive: 0.012,inactive: -0.021,inactive: -0.054,inactive: 0.017,inactive: 0.011,inactive: 0.03,inactive: 0.062,inactive: -0.039,inactive: 0.075,inactive: -0.105,inactive: -0.067,inactive: 0.165,–
CYP4V2 (UniProt Q6ZWL3),inactive: 0.022,inactive: 0.047,inactive: -0.082,inactive: 0.154,inactive: -0.009,–,inactive: 0.087,inactive: -0.071,–,–,inactive: 0.037,–,inactive: -0.075,inactive: 0.026,inactive: 0.11,inactive: -0.056,inactive: -0.239,inactive: -0.017,–,–
CT55 (UniProt Q8WUE5),inactive: 0.081,inactive: -0.017,inactive: -0.073,inactive: -0.022,inactive: 0.09,inactive: 0.021,–,inactive: 0.026,inactive: -0.017,inactive: 0.013,inactive: -0.071,inactive: 0.015,inactive: -0.056,–,inactive: 0.023,inactive: -0.118,–,inactive: 0.006,inactive: 0.008,inactive: -0.136
DAXX (UniProt Q9UER7),inactive: 0.212,active: -0.662,–,inactive: 0.037,inactive: 0.072,inactive: 0.012,inactive: 0.055,inactive: 0.009,inactive: -0.148,inactive: 0.224,inactive: 0.13,inactive: 0.091,inactive: 0.008,inactive: 0.218,–,inactive: 0.243,inactive: 0.088,inactive: -0.049,inactive: 0.078,–
CYB561 (UniProt P49447),inactive: -0.103,inactive: 0.165,–,inactive: 0.017,inactive: -0.124,inactive: 0.09,inactive: 0.155,inactive: 0.049,inactive: -0.075,inactive: 0.082,inactive: 0.122,inactive: 0.044,inactive: -0.111,inactive: -0.175,–,inactive: 0.067,inactive: -0.087,inactive: -0.1,inactive: 0.029,inactive: 0.048
CYP24A1 (UniProt Q07973),inactive: -0.042,active: -0.796,–,inactive: -0.072,inactive: 0.015,inactive: -0.13,inactive: 0.091,inactive: -0.057,inactive: 0.179,inactive: 0.046,inactive: -0.162,inactive: -0.044,inactive: 0.187,inactive: 0.412,–,inactive: 0.069,inactive: 0.31,inactive: 0.276,inactive: -0.089,–
CYB561A3 isoform 2 (UniProt Q8NBI2),inactive: -0.021,inactive: -0.016,–,inactive: 0.02,inactive: -0.005,inactive: 0.114,inactive: 0.043,inactive: -0.034,inactive: -0.01,inactive: 0.069,inactive: 0.024,inactive: 0.014,inactive: 0.033,inactive: -0.026,–,inactive: -0.164,inactive: -0.019,inactive: -0.054,inactive: -0.027,–
CTNNB1 (UniProt P35222),inactive: -0.035,inactive: 0.062,inactive: -0.033,inactive: 0.025,inactive: 0.092,inactive: 0.108,inactive: 0.036,inactive: -0.01,inactive: -0.002,inactive: -0.032,inactive: -0.028,inactive: -0.116,inactive: 0.263,inactive: -0.045,inactive: -0.056,inactive: -0.007,inactive: 0.081,inactive: -0.021,inactive: 0.003,–
CST4 (UniProt P01036),–,–,–,–,–,inactive: -0.217,–,–,–,–,–,inactive: 0.177,–,–,–,–,–,–,–,inactive: -0.094
DCAF17 (UniProt Q5H9S7),–,–,inactive: 0.015,–,–,–,–,–,–,–,–,–,–,–,inactive: -0.338,–,–,–,–,–
CYTH1 (UniProt Q15438),–,inactive: 0.169,inactive: 0.023,–,inactive: 0.012,–,–,inactive: -0.061,inactive: -0.133,inactive: -0.025,–,–,inactive: -0.033,–,inactive: -0.03,–,–,–,inactive: -0.248,–
CSRP2 (UniProt Q16527),–,inactive: 0.003,–,–,inactive: -0.07,–,inactive: -0.125,inactive: -0.03,inactive: 0.016,inactive: 0.061,–,–,inactive: 0.015,inactive: 0.146,–,–,inactive: -0.239,–,inactive: -0.006,–
DAPK2 isoform 2 (UniProt Q9UIK4),–,–,–,–,–,–,–,–,–,–,inactive: 0.097,–,–,–,–,–,–,inactive: -0.122,–,–
CUL7 isoform 2 (UniProt Q14999),inactive: -0.148,–,inactive: -0.189,inactive: 0.113,–,–,inactive: -0.114,–,inactive: -0.011,inactive: 0.128,–,–,–,inactive: 0.264,inactive: -0.17,inactive: 0.034,inactive: 0.103,–,inactive: 0.024,inactive: 0.023
CTSF (UniProt Q9UBX1),inactive: -0.034,–,inactive: -0.133,inactive: 0.116,–,–,–,–,–,–,–,–,–,–,inactive: 0.102,inactive: -0.735,–,–,–,–

# 4 consecutive entries out of the list so far, quoted:
Target,log2 fold change (erlotinib),log2 fold change [1],log2 fold change [2],log2 fold change [3],log2 fold change [4],log2 fold change [5],log2 fold change [6],log2 fold change [7],log2 fold change [8],log2 fold change [9],log2 fold change (IRAK-1-4 Inhibitor I),log2 fold change (ibrutinib),log2 fold change [10],log2 fold change (ralimetinib),log2 fold change [11],log2 fold change [12],log2 fold change [13],log2 fold change (pinometostat),log2 fold change [14],log2 fold change [15]
DCTPP1 (UniProt Q9H773),inactive: 0.01,inactive: -0.07,inactive: 0.14,inactive: -0.039,inactive: -0.073,inactive: 0.035,inactive: 0.194,inactive: 0.012,inactive: -0.021,inactive: -0.054,inactive: 0.017,inactive: 0.011,inactive: 0.03,inactive: 0.062,inactive: -0.039,inactive: 0.075,inactive: -0.105,inactive: -0.067,inactive: 0.165,–
CYP4V2 (UniProt Q6ZWL3),inactive: 0.022,inactive: 0.047,inactive: -0.082,inactive: 0.154,inactive: -0.009,–,inactive: 0.087,inactive: -0.071,–,–,inactive: 0.037,–,inactive: -0.075,inactive: 0.026,inactive: 0.11,inactive: -0.056,inactive: -0.239,inactive: -0.017,–,–
CT55 (UniProt Q8WUE5),inactive: 0.081,inactive: -0.017,inactive: -0.073,inactive: -0.022,inactive: 0.09,inactive: 0.021,–,inactive: 0.026,inactive: -0.017,inactive: 0.013,inactive: -0.071,inactive: 0.015,inactive: -0.056,–,inactive: 0.023,inactive: -0.118,–,inactive: 0.006,inactive: 0.008,inactive: -0.136
DAXX (UniProt Q9UER7),inactive: 0.212,active: -0.662,–,inactive: 0.037,inactive: 0.072,inactive: 0.012,inactive: 0.055,inactive: 0.009,inactive: -0.148,inactive: 0.224,inactive: 0.13,inactive: 0.091,inactive: 0.008,inactive: 0.218,–,inactive: 0.243,inactive: 0.088,inactive: -0.049,inactive: 0.078,–
